We go through two substances from patent US20260193309A1 (BRIGHAM AND WOMEN S HOSPITAL, published 2026).

Protein sequences, listed by entry. Tags and fused reporters are not part of them. Lines headed by an entry give the natural chain unless they say otherwise; changes in a name come on top.
UniProt P13688: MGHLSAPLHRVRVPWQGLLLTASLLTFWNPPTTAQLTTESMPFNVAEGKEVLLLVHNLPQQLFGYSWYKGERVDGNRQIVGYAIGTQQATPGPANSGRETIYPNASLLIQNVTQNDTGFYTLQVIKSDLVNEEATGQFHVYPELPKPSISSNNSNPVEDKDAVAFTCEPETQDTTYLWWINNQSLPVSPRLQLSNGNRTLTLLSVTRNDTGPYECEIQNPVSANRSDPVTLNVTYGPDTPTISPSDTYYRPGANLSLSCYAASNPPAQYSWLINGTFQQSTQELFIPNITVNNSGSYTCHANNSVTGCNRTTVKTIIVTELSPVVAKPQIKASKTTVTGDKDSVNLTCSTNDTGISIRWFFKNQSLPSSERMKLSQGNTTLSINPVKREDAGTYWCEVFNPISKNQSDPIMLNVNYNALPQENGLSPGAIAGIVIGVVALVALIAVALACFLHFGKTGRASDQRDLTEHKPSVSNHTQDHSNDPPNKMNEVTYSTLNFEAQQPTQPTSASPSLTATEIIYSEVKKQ

The target in test [1] is hCEACAM1 variant I91F (human) (UniProt P13688). Description: 'structure analysis', no further detail.
Test [2] deals with hCEACAM1 variant V39F (human) (UniProt P13688). As to the kind of experiment: 'structure analysis', no further detail.

Results are given in words; binding and its absence hold for the method and conditions named. Some entries that bind do so weakly or less than the wild type.

In the case of “hCEACAM1 variant I91F (from UniProt P13688 35-142) (receptor)”, the binding entry in test [1] was “binds”.

Take “hCEACAM1 variant V39F (from UniProt P13688 35-142) (receptor)”: in test [2], the binding entry was “binds”.
